Taken from: PubChem BioAssay AID493246 (Drosophila RNAi Screening Center, 2011)

Test: 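Genome-wide search for dsRNAs that reduce cell number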 (primary screen)
System: Drosophila Kc and S2R+ cells
Knock-down reagent: long dsRNA against Drosophila genes
Detection: 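Cell number per well after knock-down, printed as raw plate values; calls were based on per-plate z-scores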
Reading the numbers: Kc cell number and S2R+ cell number: higher = more cells remaining
Hit rule: 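Active when the per-plate z-score of cell number is 3 or more in the direction of fewer cells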
In all, the deposit lists about 21,000 reagents; this is an unselected part of those with a known target gene and a result. Over the whole deposit, 429 (2%) were called active. 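Values are raw and not normalised between plates; calls rest on per-plate z-scores that were not deposited.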 Reagent sequences are not shown. Not given: the amount of reagent, the time to read-out.

Against CG7131 [DRSC16203] the deposit lists Kc cell number, rep 1 = 1.79e6; Kc cell number, rep 2 = 1.96e6; S2R+ cell number, rep 1 = 1.25e6; S2R+ cell number, rep 2 = 1.38e6; inactive.
After knock-down of CG5742 [DRSC06949] the results were Kc cell number, rep 1 = 1.34e6; Kc cell number, rep 2 = 1.37e6; S2R+ cell number, rep 1 = 1.20e6; S2R+ cell number, rep 2 = 1.25e6; inactive.
After knock-down of noi (noisette) [DRSC12383] the results were Kc cell number, rep 1 = 1.18e6; Kc cell number, rep 2 = 1.30e6; S2R+ cell number, rep 1 = 6.71e5; S2R+ cell number, rep 2 = 7.60e5; active.
With knock-down of CG7542 [DRSC10868], the screen gave Kc cell number, rep 1 = 1.27e6; Kc cell number, rep 2 = 1.39e6; S2R+ cell number, rep 1 = 1.24e6; S2R+ cell number, rep 2 = 1.22e6; inactive.
Knock-down of Evi5 (Ecotropic viral integration site 5) [DRSC19421] resulted in: Kc cell number, rep 1 = 1.55e6; Kc cell number, rep 2 = 1.56e6; S2R+ cell number, rep 1 = 1.02e6; S2R+ cell number, rep 2 = 1.16e6; inactive.
After knock-down of yip3 (yippee interacting protein 3) [DRSC04724], the screen gave Kc cell number, rep 1 = 1.60e6; Kc cell number, rep 2 = 1.61e6; S2R+ cell number, rep 1 = 1.22e6; S2R+ cell number, rep 2 = 1.39e6; inactive.
Against CG31633 [DRSC02275] the deposit lists Kc cell number, rep 1 = 1.57e6; Kc cell number, rep 2 = 1.51e6; S2R+ cell number, rep 1 = 1.11e6; S2R+ cell number, rep 2 = 1.24e6; inactive.
Against CG13970 [DRSC02311], the entry reads Kc cell number, rep 1 = 1.44e6; Kc cell number, rep 2 = 1.54e6; S2R+ cell number, rep 1 = 1.24e6; S2R+ cell number, rep 2 = 3.28e5; inactive.
Silencing of CG1246 [DRSC08275] resulted in: Kc cell number, rep 1 = 1.68e6; Kc cell number, rep 2 = 1.58e6; S2R+ cell number, rep 1 = 1.11e6; S2R+ cell number, rep 2 = 1.42e6; inactive.
For CG2061 [DRSC19348], the entry reads Kc cell number, rep 1 = 5.37e5; S2R+ cell number, rep 1 = 8.19e5; inactive.
dpr6 (defective proboscis extension response 6) [DRSC09005] scored Kc cell number, rep 1 = 9.53e5; Kc cell number, rep 2 = 9.70e5; S2R+ cell number, rep 1 = 6.97e5; S2R+ cell number, rep 2 = 8.47e5; active.
Against dpr6 (defective proboscis extension response 6) [DRSC10162], the values are Kc cell number, rep 1 = 1.34e6; Kc cell number, rep 2 = 1.39e6; S2R+ cell number, rep 1 = 1.42e6; S2R+ cell number, rep 2 = 1.48e6; inactive.
Against GC (gamma-glutamyl carboxylase) [DRSC08396] the deposit lists Kc cell number, rep 1 = 1.35e6; Kc cell number, rep 2 = 1.32e6; S2R+ cell number, rep 1 = 1.08e6; S2R+ cell number, rep 2 = 1.26e6; inactive.
Against dgo (diego) [DRSC06134], the entry reads Kc cell number, rep 1 = 1.46e6; Kc cell number, rep 2 = 1.47e6; S2R+ cell number, rep 1 = 1.23e6; S2R+ cell number, rep 2 = 1.40e6; inactive.
Against Myc [DRSC18762] the deposit lists Kc cell number, rep 1 = 8.23e5; Kc cell number, rep 2 = 8.98e5; S2R+ cell number, rep 1 = 4.24e5; S2R+ cell number, rep 2 = 5.97e5; active.
Depletion of CG5079 [DRSC15713] came out at: Kc cell number, rep 1 = 1.26e6; Kc cell number, rep 2 = 1.37e6; S2R+ cell number, rep 1 = 6.50e5; S2R+ cell number, rep 2 = 7.35e5; active.
For CG10904 [DRSC04084], the values are Kc cell number, rep 1 = 1.64e6; Kc cell number, rep 2 = 1.69e6; S2R+ cell number, rep 1 = 1.44e6; S2R+ cell number, rep 2 = 1.57e6; inactive.
For CG11593 [DRSC08206], the values are Kc cell number, rep 1 = 1.34e6; Kc cell number, rep 2 = 1.39e6; S2R+ cell number, rep 1 = 9.68e5; S2R+ cell number, rep 2 = 1.14e6; inactive.
Against CG32832 [DRSC01562], the entry reads Kc cell number, rep 1 = 1.40e6; Kc cell number, rep 2 = 1.43e6; S2R+ cell number, rep 1 = 8.76e5; S2R+ cell number, rep 2 = 1.05e6; inactive.
Against Art3 (Arginine methyltransferase 3) [DRSC16065], the entry reads Kc cell number, rep 1 = 1.50e6; Kc cell number, rep 2 = 1.56e6; S2R+ cell number, rep 1 = 1.34e6; S2R+ cell number, rep 2 = 1.40e6; inactive.
With knock-down of Antdh (Antennal dehydrogenase) [DRSC20307] the results were Kc cell number, rep 1 = 1.61e6; Kc cell number, rep 2 = 1.54e6; S2R+ cell number, rep 1 = 1.13e6; S2R+ cell number, rep 2 = 1.30e6; inactive.
